PubChem BioAssay AID1508588 | Peter MacCallum Cancer Centre – 2020

Aim: 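Genome-wide search for knock-downs that heighten vemurafenib action in melanoma cells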 (primary screen)
Cells: human WM266.4 melanoma cells (BRAF V600 mutant)
Reagent: siRNA pool against human genes, 40 nM
Duration: 96 h from transfection to read-out
Challenge: vemurafenib 300 nM (about IC25), added 48 h after transfection, for 48 h; comparison arm got DMSO vehicle only
Measurement: 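Cell gain (DAPI nuclei at end minus before drug, mean of two replicates) and medium lactate by absorbance per cell, both as ratio to non-targeting siRNA, also grouped into fold-change classes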
Scale: cell gain with vemurafenib: higher = more cell gain than with non-targeting siRNA; lactate per cell with vemurafenib: higher = more lactate made per cell
Active means: 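Enhancement is called by pairing each knock-down's vehicle-arm and drug-arm fold-change classes for viability or glycolysis; which class combinations qualify is not given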
Meaning of the calls: active = enhances vemurafenib effect; inactive = no enhancement seen
The deposit covers about 18,000 reagents; shown is a part drawn at random. In the full data, 790 (4.4%) got an active call. 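Calls rest on a combination of fold-change classes in drug and vehicle arms, not all shown here.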 Unmarked entries are inactive.

Which result is listed for GAB2?
cell gain with vemurafenib: 0.56; lactate per cell with vemurafenib: 0.74

For SLC26A7, what does the deposit list?
cell gain with vemurafenib: 0.75; lactate per cell with vemurafenib: 0.82

What did the screen give for PNPLA5?
cell gain with vemurafenib: 0.72; lactate per cell with vemurafenib: 0.5

For KCNT1, how do the results read?
cell gain with vemurafenib: 0.6; lactate per cell with vemurafenib: 0.67

What did the screen give for TBL2?
cell gain with vemurafenib: 0.5; lactate per cell with vemurafenib: 0.63

For EEIG1, how do the results read?
cell gain with vemurafenib: 0.93; lactate per cell with vemurafenib: 1.14

What did the screen give for KLK8?
cell gain with vemurafenib: 0.5; lactate per cell with vemurafenib: 0.63

How did the screen score TUBA4A?
cell gain with vemurafenib: 0.21; lactate per cell with vemurafenib: 1.19

For RGS7BP, what does the deposit list?
cell gain with vemurafenib: 0.36; lactate per cell with vemurafenib: 0.9

What did the screen give for NCBP2?
cell gain with vemurafenib: 0.1; lactate per cell with vemurafenib: 1.88

How did the screen score CYTL1?
cell gain with vemurafenib: 0.66; lactate per cell with vemurafenib: 0.88

What did the screen give for XYLT1?
cell gain with vemurafenib: 0.48; lactate per cell with vemurafenib: 0.68

Which result is listed for REEP6?
cell gain with vemurafenib: 0.57; lactate per cell with vemurafenib: 1.37

Sorted by “lactate per cell with vemurafenib” (low to high): some entries from above
PNPLA5 — cell gain with vemurafenib: 0.72; lactate per cell with vemurafenib: 0.5
TBL2 — cell gain with vemurafenib: 0.5; lactate per cell with vemurafenib: 0.63
KCNT1 — cell gain with vemurafenib: 0.6; lactate per cell with vemurafenib: 0.67
EEIG1 — cell gain with vemurafenib: 0.93; lactate per cell with vemurafenib: 1.14

The list goes on:
For OR9K2, what was measured?
cell gain with vemurafenib: 0.27; lactate per cell with vemurafenib: 1.02

What is on record for POMT1?
cell gain with vemurafenib: 0.79; lactate per cell with vemurafenib: 1.1

With MCU, what does the deposit list?
cell gain with vemurafenib: -0.11; lactate per cell with vemurafenib: 2.13

For PSG1, what does the deposit list?
cell gain with vemurafenib: 0.95; lactate per cell with vemurafenib: 0.82

What did the screen give for ANKRD53?
cell gain with vemurafenib: 0.48; lactate per cell with vemurafenib: 1.48

For PRSS57, what does the deposit list?
cell gain with vemurafenib: 0.09; lactate per cell with vemurafenib: 2.12

How did the screen score PHF10?
cell gain with vemurafenib: 1.18; lactate per cell with vemurafenib: 0.76

With TNFRSF10D, what was measured?
cell gain with vemurafenib: 0.46 (active); lactate per cell with vemurafenib: 0.19

For POLE, how do the results read?
cell gain with vemurafenib: 0.11; lactate per cell with vemurafenib: 0.56

With NME5, how do the results read?
cell gain with vemurafenib: 0.65; lactate per cell with vemurafenib: 0.5

With PDZK1IP1, what does the deposit list?
cell gain with vemurafenib: 0.55; lactate per cell with vemurafenib: 1.03

How did the screen score BRDT?
cell gain with vemurafenib: 0.84; lactate per cell with vemurafenib: 1.05

For IPPK, what does the deposit list?
cell gain with vemurafenib: 0.48; lactate per cell with vemurafenib: 1.48

Which result is listed for SORD?
cell gain with vemurafenib: 0.2; lactate per cell with vemurafenib: 1.57

What did the screen give for SUMF2?
cell gain with vemurafenib: 0.42; lactate per cell with vemurafenib: 1.67

What did the screen give for POLDIP3?
cell gain with vemurafenib: 0.93; lactate per cell with vemurafenib: 0.68

For PCDHGA2, how do the results read?
cell gain with vemurafenib: 0.4; lactate per cell with vemurafenib: 0.52

Which result is listed for ZBTB43?
cell gain with vemurafenib: 0.54; lactate per cell with vemurafenib: 1.43

What is on record for LYRM9?
cell gain with vemurafenib: 0.33; lactate per cell with vemurafenib: 1.08

For FTCD, what was measured?
cell gain with vemurafenib: 0.55; lactate per cell with vemurafenib: 0.81

Which result is listed for TMEM8B?
cell gain with vemurafenib: 0.43; lactate per cell with vemurafenib: 1.93

With MTM1, what does the deposit list?
cell gain with vemurafenib: 0.25; lactate per cell with vemurafenib: 1.08

With CD22, how do the results read?
cell gain with vemurafenib: 0.56; lactate per cell with vemurafenib: 0.5

Which result is listed for LCE3B?
cell gain with vemurafenib: 0.57; lactate per cell with vemurafenib: 1.27

With SLC27A4, what was measured?
cell gain with vemurafenib: 0.69; lactate per cell with vemurafenib: 0.9

What is on record for ST3GAL5?
cell gain with vemurafenib: 0.89; lactate per cell with vemurafenib: 0.99

For ERP27, what does the deposit list?
cell gain with vemurafenib: 0.3; lactate per cell with vemurafenib: 1.6
